Laboratory results from publication PMC8575462, “PP2A/B55α substrate recruitment as defined by the retinoblastoma-related protein p107” (eLife, 2021).
Substitutions are numbered along the chain they refer to. No constants are given. Whether binding was seen depends on the method and setting. In cells and extracts the contact can be indirect. Some results given as binding are weak or reduced against the parent protein; the word gives no strength. Tags and fused reporters may be left off the sequences shown. Values belong to the binder of their own block, whether it stands above or below them.

How the values were obtained:
Myc-B55α H179A = molecular target: T1, Myc-B55α H179A (UniProt P63151); experiment: co-IP; 293T cells co-transfected with a FLAG-tagged substrate and wildtype or mutant Myc-B55α; IP with anti-Myc agarose; blots with anti-Flag, anti-B55α, anti-PP2A/C
T1 sequence: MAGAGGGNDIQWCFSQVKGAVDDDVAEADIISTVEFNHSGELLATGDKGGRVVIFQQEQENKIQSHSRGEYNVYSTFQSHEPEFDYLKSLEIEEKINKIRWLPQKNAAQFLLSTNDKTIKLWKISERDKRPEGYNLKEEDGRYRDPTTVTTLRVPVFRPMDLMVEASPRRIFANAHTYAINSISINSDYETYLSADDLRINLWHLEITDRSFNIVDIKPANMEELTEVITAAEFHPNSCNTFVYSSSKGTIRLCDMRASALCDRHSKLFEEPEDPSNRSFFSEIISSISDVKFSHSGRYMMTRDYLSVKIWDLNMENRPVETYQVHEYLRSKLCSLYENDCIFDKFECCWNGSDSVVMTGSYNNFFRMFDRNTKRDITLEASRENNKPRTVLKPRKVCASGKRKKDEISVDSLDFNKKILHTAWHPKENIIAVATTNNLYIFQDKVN

Myc-B55α wild type = molecular target: T2, Myc-B55α wild type (UniProt P63151); experiment: as above
T2 sequence: T1 sequence with A179H

Myc-B55α V228A = molecular target: T3, Myc-B55α V228A (UniProt P63151); experiment: as above
T3 sequence: T1 sequence with A179H, V228A

GST-p107 spacer = molecular target: T4, GST-p107 spacer (UniProt P28749); experiment: pull-down; GST-p107 spacer constructs on glutathione beads incubated with U-2 OS whole-cell lysate (methods: 293T lysates), 3 hr or overnight at 4°C, washed 5x with DIP lysis buffer; western blot; only the target purified
T4 sequence: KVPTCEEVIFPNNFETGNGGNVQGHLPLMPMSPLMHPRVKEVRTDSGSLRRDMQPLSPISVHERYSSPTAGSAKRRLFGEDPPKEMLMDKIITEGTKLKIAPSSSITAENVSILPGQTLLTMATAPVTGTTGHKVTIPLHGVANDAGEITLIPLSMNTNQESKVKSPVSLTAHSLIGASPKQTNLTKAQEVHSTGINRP

B3: B55α (PP2A regulatory subunit B55α), endogenous in U-2 OS cells (protein, UniProt P63151 1-447)
chain: T1 sequence with A179H
binding (GST-p107 spacer): binds

B4: Flag-KSR1 (protein, UniProt Q8IVT5 1-923)
chain: MDRAALRAAAMGEKKEGGGGGDAAAAEGGAGAAASRALQQCGQLQKLIDISIGSLRGLRTKCAVSNDLTQQEIRTLEAKLVRYICKQRQCKLSVAPGERTPELNSYPRFSDWLYTFNVRPEVVQEIPRDLTLDALLEMNEAKVKETLRRCGASGDECGRLQYALTCLRKVTGLGGEHKEDSSWSSLDARRESGSGPSTDTLSAASLPWPPGSSQLGRAGNSAQGPRSISVSALPASDSPTPSFSEGLSDTCIPLHASGRLTPRALHSFITPPTTPQLRRHTKLKPPRTPPPPSRKVFQLLPSFPTLTRSKSHESQLGNRIDDVSSMRFDLSHGSPQMVRRDIGLSVTHRFSTKSWLSQVCHVCQKSMIFGVKCKHCRLKCHNKCTKEAPACRISFLPLTRLRRTESVPSDINNPVDRAAEPHFGTLPKALTKKEHPPAMNHLDSSSNPSSTTSSTPSSPAPFPTSSNPSSATTPPNPSPGQRDSRFNFPAAYFIHHRQQFIFPVPSAGHCWKCLLIAESLKENAFNISAFAHAAPLPEAADGTRLDDQPKADVLEAHEAEAEEPEAGKSEAEDDEDEVDDLPSSRRPWRGPISRKASQTSVYLQEWDIPFEQVELGEPIGQGRWGRVHRGRWHGEVAIRLLEMDGHNQDHLKLFKKEVMNYRQTRHENVVLFMGACMNPPHLAIITSFCKGRTLHSFVRDPKTSLDINKTRQIAQEIIKGMGYLHAKGIVHKDLKSKNVFYDNGKVVITDFGLFGISGVVREGRRENQLKLSHDWLCYLAPEIVREMTPGKDEDQLPFSKAADVYAFGTVWYELQARDWPLKNQAAEASIWQIGSGEGMKRVLTSVSLGKEVSEILSACWAFDLQERPSFSLLMDMLEKLPKLNRRLSHPGHFWKSADINSSKVVPRFERFGLGVLESSNPKM
binding (Myc-B55α H179A): binds | binding (Myc-B55α wild type): binds | binding (Myc-B55α V228A): binds

Further lines, results first:

binding (Myc-B55α H179A): binds | binding (Myc-B55α wild type): binds | binding (Myc-B55α V228A): binds
B1: Flag-pRB (protein, UniProt P06400 1-928)
chain: MPPKTPRKTAATAAAAAAEPPAPPPPPPPEEDPEQDSGPEDLPLVRLEFEETEEPDFTALCQKLKIPDHVRERAWLTWEKVSSVDGVLGGYIQKKKELWGICIFIAAVDLDEMSFTFTELQKNIEISVHKFFNLLKEIDTSTKVDNAMSRLLKKYDVLFALFSKLERTCELIYLTQPSSSISTEINSALVLKVSWITFLLAKGEVLQMEDDLVISFQLMLCVLDYFIKLSPPMLLKEPYKTAVIPINGSPRTPRRGQNRSARIAKQLENDTRIIEVLCKEHECNIDEVKNVYFKNFIPFMNSLGLVTSNGLPEVENLSKRYEEIYLKNKDLDARLFLDHDKTLQTDSIDSFETQRTPRKSNLDEEVNVIPPHTPVRTVMNTIQQLMMILNSASDQPSENLISYFNNCTVNPKESILKRVKDIGYIFKEKFAKAVGQGCVEIGSQRYKLGVRLYYRVMESMLKSEEERLSIQNFSKLLNDNIFHMSLLACALEVVMATYSRSTSQNLDSGTDLSFPWILNVLNLKAFDFYKVIESFIKAEGNLTREMIKHLERCEHRIMESLAWLSDSPLFDLIKQSKDREGPTDHLESACPLNLPLQNNHTAADMYLSPVRSPKKKGSTTRVNSTANAETQATSAFQTQKPLKSTSLSLFYKKVYRLAYLRLNTLCERLLSEHPELEHIIWTLFQHTLQNEYELMRDRHLDQIMMCSMYGICKVKNIDLKFKIIVTAYKDLPHAVQETFKRVLIKEEEYDSIIVFYNSVFMQRLKTNILQYASTRPPTLSPIPHIPRSPYKFPSSPLRIPGGNIYISPLKSPYKISEGLPTPTKMTPRSRILVSIGESFGTSEKFQKINQMVCNSDRVLKRSAEGSNPPKPLKKLRFDIEGSDEADGSKHLPGESKFQQKLAEMTSTRTRMQKQKMNDSMDTSNKEEK

binding (Myc-B55α H179A): binds | binding (Myc-B55α wild type): binds | binding (Myc-B55α V228A): binds
B2: Flag-p107 (protein, UniProt P28749 1-1068)
chain: MFEDKPHAEGAAVVAAAGEALQALCQELNLDEGSAAEALDDFTAIRGNYSLEGEVTHWLACSLYVACRKSIIPTVGKGIMEGNCVSLTRILRSAKLSLIQFFSKMKKWMDMSNLPQEFRERIERLERNFEVSTVIFKKYEPIFLDIFQNPYEEPPKLPRSRKQRRIPCSVKDLFNFCWTLFVYTKGNFRMIGDDLVNSYHLLLCCLDLIFANAIMCPNRQDLLNPSFKGLPSDFHTADFTASEEPPCIIAVLCELHDGLLVEAKGIKEHYFKPYISKLFDRKILKGECLLDLSSFTDNSKAVNKEYEEYVLTVGDFDERIFLGADAEEEIGTPRKFTRDTPLGKLTAQANVEYNLQQHFEKKRSFAPSTPLTGRRYLREKEAVITPVASATQSVSRLQSIVAGLKNAPSDQLINIFESCVRNPVENIMKILKGIGETFCQHYTQSTDEQPGSHIDFAVNRLKLAEILYYKILETVMVQETRRLHGMDMSVLLEQDIFHRSLMACCLEIVLFAYSSPRTFPWIIEVLNLQPFYFYKVIEVVIRSEEGLSRDMVKHLNSIEEQILESLAWSHDSALWEALQVSANKVPTCEEVIFPNNFETGNGGNVQGHLPLMPMSPLMHPRVKEVRTDSGSLRRDMQPLSPISVHERYSSPTAGSAKRRLFGEDPPKEMLMDKIITEGTKLKIAPSSSITAENVSILPGQTLLTMATAPVTGTTGHKVTIPLHGVANDAGEITLIPLSMNTNQESKVKSPVSLTAHSLIGASPKQTNLTKAQEVHSTGINRPKRTGSLALFYRKVYHLASVRLRDLCLKLDVSNELRRKIWTCFEFTLVHCPDLMKDRHLDQLLLCAFYIMAKVTKEERTFQEIMKSYRNQPQANSHVYRSVLLKSIPREVVAYNKNINDDFEMIDCDLEDATKTPDCSSGPVKEERGDLIKFYNTIYVGRVKSFALKYDLANQDHMMDAPPLSPFPHIKQQPGSPRRISQQHSIYISPHKNGSGLTPRSALLYKFNGSPSKSLKDINNMIRQGEQRTKKRVIAIDSDAESPAKRVCQENDDVLLKRLQDVVSERANH
